Data taken from the supplement of paper PMC7024190.
Where a name gives a salt, the structure may show the parent alone. Some of the results follow. Single values are uncertain here, since repeats match poorly.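 Human embryonic kidney cells were transiently transfected with a plasmid bearing a Renilla luciferase gene under the HSV-TK promoter. This first-round screen tests roughly ten thousand compounds for ones that increase reporter output.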

Each compound was assayed on HEK 293FT (assay: log relative Renilla luciferase luminescence (reporter expression vs reference, reference not stated) (log (base not stated)); higher = higher recombinant reporter expression). Details: 10 µM; time after transfection 48 h.
Work on `COc1ccc(Cl)cc1C(=O)NCCc1ccc(S(=O)(=O)NC(=O)NC2CCCCC2)cc1` [Glibenclamide] yielded a log of -8.27e-06.
Work on `OC(CN1CCC(Cc2ccc(F)cc2)CC1)c1ccc(Cl)cc1` (stereo not given) [Eliprodil] yielded a log of 0.0783.
For `CCc1c2c(nc3ccc(O)cc13)-c1cc3c(c(=O)n1C2)COC(=O)[C@]3(O)CC`, the log was -0.952.
Work on `CC(C)C1C2CCC(C2)C1N` (stereo not given) yielded a log of 0.00532.
`CCCn1c(=O)[nH]c2nc(-c3ccc(S(=O)(=O)O)cc3)[nH]c2c1=O` showed a log of -0.0548.
`CN(C(=O)c1c(O)c2ccccc2n(C)c1=O)c1ccccc1` [Linomide] gave a log of -0.126.
With `c1cc2c3c(c1)c1c(n3CCNC2)CCCC1` [WAY 629 hydrochloride] the log was 0.1.
`CCOCC(O)COc1ccc(NC(=O)CC[S+](C)C)cc1` (stereo not given) [Suplatast tosylate] gave a log of -0.0182.
`CCN(c1ccccc1)c1cc(=NC)n(C)c(C)n1` showed a log of -0.085.
Compound `CC(C)NCC(O)COc1ccc(CC(N)=O)cc1` (racemic) [(RS)-Atenolol] has a log of 0.105.
With `CCN(CC)CCCCN1c2ccccc2Oc2ccc(Cl)cc21` [10-DEBC hydrochloride] the log was -0.0188.
`O=[N+]([O-])c1cc(Cl)ccc1S(=O)(=O)N1CCN(Cc2ccccc2)CC1` was tested, and the log was -1.15.
`O=S(=O)(c1cccc2cnccc12)N1CCCNCC1` [Fasudil hydrochloride] showed a log of -0.141.
Compound `O=C(/C=C/c1ccc(O)c(O)c1)OCCc1ccccc1` [Caffeic acid phenethyl ester] has a log of 0.0875.
Work on `CCCn1c(=O)c2[nH]c(-c3ccccc3)nc2n(CCC)c1=O` [1,3-Dipropyl-8-phenylxanthine] yielded a log of 0.209.
`COC(=O)[C@H](NC(=O)c1cc(-c2ccccc2)nc2ccccc12)c1ccccc1` showed a log of 0.0158.
`N=C(N)NC(=N)Nc1ccccc1` [1-Phenylbiguanide hydrochloride] showed a log of 0.134.
With `Cc1nc2c(O)cccc2c(=O)[nH]1` the log was 0.0801.
In the case of `Clc1ccc2c(c1)N=C(N1CCNCC1)c1ccccc1N2` [N-Desmethylclozapine], the log is reported as 0.14.
`CC[N+](CC)(CC)CCOc1ccc(/C=C/c2ccccc2)cc1` showed a log of -0.12.
`COc1ccc(-c2nc(-c3ccc(-c4cccc(Cl)c4)o3)[nH]c2-c2ccc(OC)cc2)cc1` [Neurodazine] was tested, and the log was 0.0467.
In the case of `Nc1nc2c(ccc3ccccc32)s1`, the log is reported as -0.0334.
With `Cc1ccc(Sc2cncc3sc(C(N)=O)cc23)cc1` the log was -0.115.
`CC(C)[C@H](CO)Nc1nc(Nc2cc(N)cc(Cl)c2)c2ncn(C(C)C)c2n1` [Aminopurvalanol A] showed a log of -0.267.
In the case of `Clc1ccc(CCCOCCCN2CCCCC2)cc1`, the log is reported as -0.0169.
`N[C@@H](CS(=O)O)C(=O)O` [L-Cysteinesulfinic acid] was tested, and the log was 0.109.
For `O=c1oc(-c2ccc(C(F)(F)F)cc2)nn1Cc1cc(Cl)ccc1O`, the log was -0.0171.
`Nc1nc(-c2ccc(Cl)c(Cl)c2)c(-c2ccncc2)s1` [CGH 2466 dihydrochloride] gave a log of -0.0492.
`CC(Cc1ccc(O)c(O)c1)(NN)C(=O)O` [(S)-(-)-Carbidopa] gave a log of 0.119.
`NC(=O)c1cccc(N)c1` [3-Aminobenzamide] showed a log of 0.156.
`CC(C)[N+]1(C)[C@@H]2CC[C@H]1C[C@@H](OC(=O)C(CO)c1ccccc1)C2` (stereo not given in full) [Ipratropium bromide] gave a log of -0.0572.
In the case of `C[N+](C)(C)CCCCCNCC12CC3CC(CC(C3)C1)C2`, the log is reported as 0.125.
`CS(=O)(=O)c1ccc(Cn2c3c(c4cc(F)cc(F)c42)CCCC3CC(=O)O)cc1` (stereo not given) gave a log of 0.117.
Work on `CCc1c2c(nc3ccc(OC(=O)N4CCC(N5CCCCC5)CC4)cc13)-c1cc3c(c(=O)n1C2)COC(=O)[C@]3(O)CC` yielded a log of -0.361.
Compound `CC(C)NC[C@@H](O)COc1cccc2ccccc12` [(R)-(+)-Propranolol hydrochloride] has a log of 0.0967.
`O=S(=O)(NCCNC/C=C/c1ccc(Br)cc1)c1cccc2cnccc12` [H 89 dihydrochloride] was tested, and the log was -0.0964.
For `OC(CNCC(O)C1CCc2cc(F)ccc2O1)C1CCc2cc(F)ccc2O1` (stereo not given) [Nebivolol hydrochloride], the log was -0.041.
In the case of `Cc1scc2c1N(C(=O)CN1CCN(C)CC1)c1ccccc1NC2=O` [Telenzepine dihydrochloride], the log is reported as 0.0774.
`CCCCCCCCCCCCCCCC(=O)NCCO` [Palmitoylethanolamide] showed a log of -0.0983.
With `O=C(Nc1cccc2cccnc12)c1ccc(N2C(=O)[C@@H]3[C@H](C2=O)[C@@H]2C=C[C@H]3C2)cc1` [endo-IWR 1] the log was 0.0512.
